Assay results reported in PubChem BioAssay AID504834 (National Center for Advancing Translational Sciences (NCATS), 2011).
About 22,000 (6.9%) of roughly 320,000 compounds were called active. The shares of active, inactive and inconclusive entries below differ from those in the screen. Calls follow the shape of the dose curve; as a rule, active = well fitted inhibition curve with a large enough effect; inconclusive = small, poorly fitted or top-dose-only effect, or another doubt; inactive = no such curve, though single readings can be large or run the other way. Potencies of inconclusive entries are doubtful fits and often do not repeat.

Assay: Primary qHTS for delayed death inhibitors of the malarial parasite plastid, 96 hour incubation
Settings: P. falciparum luciferase reporter growth; series mostly up to 28.7 µM; activity change, negative = inhibition: at the top concentration
How it was run: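 Infected RBCs, 2% Hct / 0.05% parasitemia final; luciferase-reporter P. falciparum; cpd 96 h, 37 C, 5% CO2; luciferase detection reagent; luminescence.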
% is scaled to controls: 0 for no effect and ±100 for the full control effect; potency is read from the fitted curve at half-maximal effect.

Row | Structure (SMILES) | Potency | activity change, negative = inhibition
1 | CN(C)S(=O)(=O)N1CCC(Oc2cccc(C(=O)N3CCSCC3)c2)CC1 | inconclusive: 2.94 µM [inhibitor, full curve] | 
2 | CCOc1ccc(C2C(C(=O)Nc3cc(C)on3)c3ccccc3C(=O)N2CCN2CCOCC2)cc1 (stereo unspecified) | inconclusive: 8.28 µM [inhibitor, partial curve] | 
3 | CCC(=O)Nc1nc(N)n(-c2ccccc2)n1 |  | inactive: 20.8%
4 | CCOC(=O)c1c(NC(=O)CSc2nnnn2C)sc(C)c1-c1ccc(C)cc1 | active: 2.33 µM | 
5 | COc1ccc(OC)c(-c2cc(C(=O)NCCN3CCOCC3)no2)c1 | inconclusive: 1.04 µM [inhibitor, partial curve, poor fit] | 
6 | COc1cccc(C(=O)NCCC2=CCCCC2)c1 |  | inactive: 275%
7 | COC(=O)c1c(NC(=O)C(C)C)sc2c1CCN(Cc1ccccc1)C2 | inconclusive: 11.7 µM [inhibitor, single point] | 
8 | Cc1ccc(NC(=O)c2nnn(-c3cccc(C(F)(F)F)c3)c2N)cc1 | active: 11.7 µM | 
9 | C/C(=N\NC(=S)Nc1ccccc1C)C1Cc2ccccc2C(=O)O1 (stereo unspecified) |  | inactive: 11.5%
10 | Cc1nn(Cc2ccccc2Cl)c(C)c1NC(=O)Cn1nc([N+](=O)[O-])c(Cl)c1C | inconclusive: 18.5 µM [inhibitor, single point] | 
11 | CN(C)S(=O)(=O)c1ccc(C(=O)Nc2ccc3ncccc3c2)cc1 | inconclusive: 18.5 µM [inhibitor, single point] | 
12 | CCCc1cc(=O)[nH]c(SCC(=O)N2CCC(C)CC2)n1 |  | inactive: 35.7%
13 | COc1cc(C(c2c(C)[nH][nH]c2=O)c2c(C)[nH][nH]c2=O)ccc1OC(=O)c1cccc([N+](=O)[O-])c1 | inconclusive: 0.0052 µM [inhibitor, full curve, poor fit] | 
14 | COc1cc(CN2CCC(n3nccc3NC(=O)c3ccc4c(c3)OCO4)CC2)ccc1O | inconclusive: 18.5 µM [inhibitor, single point] | 
15 | Cc1cccc(C)c1NC(=O)CN(C)C(=O)Cn1c(=O)cnc2ccccc21 |  | inactive: 31.2%
16 | Cc1cc(-c2nnc(SCC(=O)NC3CCCC3)o2)no1 |  | inactive: -12.5%
17 | COc1ccccc1N1C(=O)CSC1=S |  | inactive: 20.2%
18 | O=C(Nc1ccc(F)cc1)c1cc(S(=O)(=O)Nc2ccc(F)cc2)cs1 | active: 11.7 µM | 
19 | Cc1nn(C(=O)c2cccnc2)c(C)c1C | inconclusive: 0.104 µM [inhibitor, full curve, poor fit] | 
20 | COc1ccccc1C1CC(c2ccccc2)=NN1S(=O)(=O)c1ccccc1 (stereo unspecified) | inconclusive: 0.233 µM [inhibitor, full curve, poor fit] | 
21 | CN(C)c1ccc(C(=O)N2CCNC(=O)C2CC(=O)Nc2ccc(F)cc2)cc1 (stereo unspecified) |  | inactive: 10.8%
22 | CCn1c(SCC(=O)N2CC(=O)Nc3ccccc32)nnc1-c1ccoc1C | inconclusive: 18.5 µM [inhibitor, single point] | 
23 | COCC(=O)NC1CC(C)(C)Cc2c1cnn2-c1ccc(F)cc1 (stereo unspecified) | inconclusive: 13.1 µM [inhibitor, partial curve, poor fit] | 

Row | Structure (SMILES) | Potency | activity change, negative = inhibition
24 | O=C1OCC(CO)(CO)N=C1NNc1ccccc1[N+](=O)[O-] | inconclusive: 13.1 µM [inhibitor, single point] | 
25 | Cc1ccc(OCC(=O)N(Cc2ccccc2)c2c(N)n(Cc3ccccc3)c(=O)[nH]c2=O)c(C)c1 | inconclusive: 14.7 µM [inhibitor, partial curve] | 
26 | CCSc1cc(C)nc2c(-c3ccc(Cl)cc3)c(C)nn12 |  | inactive: -1.96%
27 | Cc1ccc(-c2noc(C3CCCN(S(=O)(=O)c4ccc(S(=O)(=O)N(C)C)cc4)C3)n2)o1 (stereo unspecified) | inconclusive: 0.37 µM [inhibitor, full curve, poor fit] | 
28 | Cc1ccn(S(=O)(=O)c2ccc(N3CCCC3=O)cc2)n1 | inconclusive: 18.5 µM [inhibitor, single point] | 
29 | C=CCNC(=S)NC(=O)c1oc2ccccc2c1C | inconclusive: 11.7 µM [inhibitor, single point] | 
30 | Cn1c(=O)c2c(nc(NCc3ccco3)n2Cc2ccccc2Cl)n(C)c1=O |  | inactive: -1.79%
31 | COc1cc(C)ccc1S(=O)(=O)N1CCCCCC1 |  | inactive: 23.3%
32 | CC1(C)CC2=C(CO1)C(=S)NC(c1ccccc1)N2CC1CCCO1 (stereo unspecified) | inconclusive: 18.5 µM [inhibitor, single point] | 
33 | CCn1cc(C(=O)NCc2cccc(F)c2)c(=O)c2cc(F)c(N3CCN(C(=O)c4ccco4)CC3)cc21 | active: 2.08 µM | 
34 | CCC(C)C(NC(=O)[C@@H](NC(=O)c1ccccc1F)C(C)C)C(=O)OC (stereo partly specified) | inconclusive: 3.7 µM [inhibitor, full curve, poor fit] | 
35 | CCOc1ncccc1C(=O)OC(C)C(=O)Nc1ccc(Cl)cn1 (stereo unspecified) |  | inactive: 32.4%
36 | COc1ccc2c(c1)CC(C1(O)C(=O)Nc3ccccc31)C2=O (stereo unspecified) |  | inactive: 35.4%
37 | CC(=O)NS(=O)(=O)c1ccc(NC(=S)NC(=O)CC(C)C)cc1 | inconclusive: 13.1 µM [inhibitor, single point] | 
38 | CCNC(=S)N1CCCC(C(N)=O)C1 (stereo unspecified) |  | inactive: 13.6%
39 | Cc1cc(NCCc2ccc(Cl)cc2)n2ncnc2n1 |  | inactive: 21.5%
40 | COc1ccc(NC(=O)C2CCCN(c3c4c(nc5ncnn35)CCC4)C2)cc1 (stereo unspecified) | active: 11.7 µM | 
41 | O=S(=O)(c1ccc(Cl)s1)N1CCN(C/C=C/c2ccccc2)CC1 | inconclusive: 11.7 µM [inhibitor, partial curve, poor fit] | 
42 | CCN1CCN(CCCNC(=O)C2c3ccccc3C(=O)N(c3ccc(OC)cc3)C2c2ccc(OC)cc2)CC1 (stereo unspecified) |  | inactive: -18.7%
43 | Cc1cc(C)c(S(=O)(=O)c2ccccc2)c(=O)[nH]1 |  | inactive: 3.01%
44 | COc1ccc(C(=O)OCC(=O)N2CCOCC2)cc1S(=O)(=O)N1CCOCC1 | inconclusive: 0.465 µM [inhibitor, full curve, poor fit] | 
45 | Cc1ccc(NC(=O)C(OC(=O)c2ccc(O)cc2)c2ccccc2)cc1Cl (stereo unspecified) | inconclusive: 18.5 µM [inhibitor, single point] | 
46 | C=C1C(=O)C=C2CN(C(=O)c3ccccc3)[C@@](Cc3ccc(F)cc3)(C(=O)OC)[C@@H]12 | inconclusive: 13.1 µM [inhibitor, single point] | 

Twelve structures already listed, sorted by heavy-atom count, ascending:
Row | Structure (SMILES) | Potency | activity change, negative = inhibition
43 | Cc1cc(C)c(S(=O)(=O)c2ccccc2)c(=O)[nH]1 |  | inactive: 3.01%
29 | C=CCNC(=S)NC(=O)c1oc2ccccc2c1C | inconclusive: 11.7 µM [inhibitor, single point] | 
39 | Cc1cc(NCCc2ccc(Cl)cc2)n2ncnc2n1 |  | inactive: 21.5%
26 | CCSc1cc(C)nc2c(-c3ccc(Cl)cc3)c(C)nn12 |  | inactive: -1.96%
24 | O=C1OCC(CO)(CO)N=C1NNc1ccccc1[N+](=O)[O-] | inconclusive: 13.1 µM [inhibitor, single point] | 
35 | CCOc1ncccc1C(=O)OC(C)C(=O)Nc1ccc(Cl)cn1 (stereo unspecified) |  | inactive: 32.4%
34 | CCC(C)C(NC(=O)[C@@H](NC(=O)c1ccccc1F)C(C)C)C(=O)OC (stereo partly specified) | inconclusive: 3.7 µM [inhibitor, full curve, poor fit] | 
30 | Cn1c(=O)c2c(nc(NCc3ccco3)n2Cc2ccccc2Cl)n(C)c1=O |  | inactive: -1.79%
40 | COc1ccc(NC(=O)C2CCCN(c3c4c(nc5ncnn35)CCC4)C2)cc1 (stereo unspecified) | active: 11.7 µM | 
27 | Cc1ccc(-c2noc(C3CCCN(S(=O)(=O)c4ccc(S(=O)(=O)N(C)C)cc4)C3)n2)o1 (stereo unspecified) | inconclusive: 0.37 µM [inhibitor, full curve, poor fit] | 
33 | CCn1cc(C(=O)NCc2cccc(F)c2)c(=O)c2cc(F)c(N3CCN(C(=O)c4ccco4)CC3)cc21 | active: 2.08 µM | 
42 | CCN1CCN(CCCNC(=O)C2c3ccccc3C(=O)N(c3ccc(OC)cc3)C2c2ccc(OC)cc2)CC1 (stereo unspecified) |  | inactive: -18.7%
